Data taken from publication doi:10.1101/2022.07.28.501905.
These are yes or no findings as the source states them, for the method shown. Binding seen in cells or lysates may run through a third protein. A result given as binding can be weak or reduced; the word gives no strength. Tags and fused reporters may be left off the sequences shown.

Molecular target: GcR8IP1-HA (full length Gc-RPW8.2 interacting protein 1) (Golovinomyces cichoracearum UCSC1)
Test: co-IP

B1: RPW8.2-FLAG (protein, UniProt Q9C5Z6 1-174)
chain: MIAEVAAGGALGLALSVLHEAVKRAKDRSVTTRFILHRLEATIDSITPLVVQIDKFSEEMEDSTSRKVNKRLKLLLENAVSLVEENAELRRRNVRKKFRYMRDIKEFEAKLRWVVDVDVQVNQLADIKELKAKMSEISTKLDKIMPQPKFEIHIGWCSGKTNRAIRFTFCSDDS
binding: binds
